PubChem BioAssay AID1224830, NIAID – 2016

- Screen: 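Host factors that control LPS-induced TNF expression in human macrophages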 (primary screen)
- System: human THP-1 monocytic leukaemia cells, TNF dual-luciferase reporter clone, PMA-differentiated to macrophage-like cells
- Reagent: siRNA pool against human genes, 50 nM
- Duration: LPS for 4 h, given about 3 days after siRNA transfection
- Treatment: bacterial LPS (TLR4 ligand), 10 ng/ml
- Measurement: 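TNF firefly reporter luminescence divided by renilla, normalised to the plate median, then turned into a robust z-score for each replicate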
- Direction: TNF reporter robust z-score: higher = stronger TNF reporter response to LPS
- Call rule: 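a well is active when its z-score exceeds 2.8 or falls below -1.5; control wells carry no call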
In all, the deposit lists about 18,000 reagents; this is a part drawn at random. Of all reagents, about 2,900 (16%) were called active. 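Calls are made per well; low scores hint the gene aids the LPS response, high scores that it dampens it.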 Unmarked entries are inactive. Repeated entries: four replicate wells of each siRNA pool.

The opening 9 records, to show the layout:
Gene	TNF reporter robust z-score
PCDHA12	0.92
PCDHA12	0.24
PCDHA12	-0.08
PCDHA12	0.25
THOC3	-0.28
THOC3	-0.36
THOC3	-0.6
THOC3	-0.07
FREY1	-0.83

The list itself, repeating the preview:
Gene	TNF reporter robust z-score
PCDHA12	0.92
PCDHA12	0.24
PCDHA12	-0.08
PCDHA12	0.25
THOC3	-0.28
THOC3	-0.36
THOC3	-0.6
THOC3	-0.07
FREY1	-0.83
FREY1	-1.47
FREY1	-1.39
FREY1	-0.82
TRIM61	-0.34
TRIM61	-1.9 (active)
TRIM61	-1.34
HCFC1R1	-0.68
HCFC1R1	0.37
HCFC1R1	0.86
HCFC1R1	0.17
FRK	1.26
FRK	0.65
FRK	0.87
FRK	1.89
UBE2K	-0.64
UBE2K	-0.47
UBE2K	0.76
UBE2K	-0.31
ZNF443	-0.99
ZNF443	-0.77
ZNF443	-0.58
ZNF443	-0.3
SEC61A2	1.21
SEC61A2	-0.6
SEC61A2	1.92
SEC61A2	-1.36
RFC2	-0.01
RFC2	-0.14
RFC2	-0.13
RFC2	0.17
HMGN4	-0.46
HMGN4	0.47
HMGN4	-0.34
HMGN4	0.4
TMPPE	-0.63
TMPPE	-1.05
TMPPE	-1
TMPPE	-0.76
COL19A1	0.37
COL19A1	1.67
COL19A1	3.5 (active)
COL19A1	2.94 (active)
CC2D1A	-1.16
CC2D1A	-0.71
CC2D1A	0.01
CC2D1A	0.61
GIT1	-1.19
GIT1	-0.85
GIT1	-0.86
GIT1	-0.04
CTAGE1	2.86 (active)
CTAGE1	2.81 (active)
CTAGE1	0.44
CTAGE1	-0.08
ATF6	0.23
ATF6	0.4
ATF6	1.43
OXR1	-1.15
OXR1	1.01
OXR1	-0.31
OXR1	1.29
ARFGAP2	-0.33
ARFGAP2	-0.13
ARFGAP2	0.04
ARFGAP2	0.25
DPEP3	-0.74
DPEP3	-0.43
DPEP3	0.09
DPEP3	0
MYO3B	-0.94
MYO3B	-0.01
MYO3B	-0.88
MYO3B	0.22
OR51M1	-1.47
OR51M1	-1.15
OR51M1	-1.33
OR51M1	-1.31
H3-3B	0.33
H3-3B	1.54
H3-3B	0.39
H3-3B	-0.32
CEP43	0.03
CEP43	0.18
CEP43	0.86
CEP43	1.08
ASF1A	-0.8
ASF1A	-1.01
ASF1A	-0.85
ASF1A	0.21
IRF7	0.74
IRF7	0.91
IRF7	-0.29
IRF7	1.87
BCL2L13	0.19
BCL2L13	0.87
BCL2L13	-0.46
BCL2L13	0.99
EPB41	4.74 (active)
EPB41	-1.29
EPB41	-0.23
EPB41	0.69
UQCC3	0.96
UQCC3	1.62
UQCC3	1.15
UQCC3	1.96
SEMA3D	-1.31
SEMA3D	-0.46
SEMA3D	-0.12
SEMA3D	0
GABRP	0.33
GABRP	0.21
GABRP	0.37
GABRP	3.08 (active)
CDC5L	-1.36
CDC5L	-1.2
CDC5L	-1.07
CDC5L	-0.41
VMP1	-0.24
VMP1	0
VMP1	-0.71
VMP1	-0.09
YIPF4	1.23
YIPF4	0.28
YIPF4	0.74
YIPF4	0.62
ZNF621	0.83
ZNF621	1.78
ZNF621	-0.34
ZNF621	3.18 (active)
TMED3	-1.45
TMED3	-1.38
TMED3	-1.51 (active)
